Measured values published in patent US8293758B2, “Substituted spirocyclic cyclohexane derivatives” (dated 2012).

Sequences of proteins named here, by UniProt entry; tags and fusion partners are left off.
UniProt P41146, whole entry: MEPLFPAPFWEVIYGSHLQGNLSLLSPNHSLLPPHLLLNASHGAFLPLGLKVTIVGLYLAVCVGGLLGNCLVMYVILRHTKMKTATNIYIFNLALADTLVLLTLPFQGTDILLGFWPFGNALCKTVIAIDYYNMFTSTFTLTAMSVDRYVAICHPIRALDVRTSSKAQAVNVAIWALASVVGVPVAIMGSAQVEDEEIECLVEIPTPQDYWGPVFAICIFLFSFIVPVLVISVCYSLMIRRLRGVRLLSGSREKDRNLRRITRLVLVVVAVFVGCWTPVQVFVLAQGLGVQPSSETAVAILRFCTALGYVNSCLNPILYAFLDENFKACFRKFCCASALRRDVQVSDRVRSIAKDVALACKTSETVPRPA
UniProt P35372, whole entry: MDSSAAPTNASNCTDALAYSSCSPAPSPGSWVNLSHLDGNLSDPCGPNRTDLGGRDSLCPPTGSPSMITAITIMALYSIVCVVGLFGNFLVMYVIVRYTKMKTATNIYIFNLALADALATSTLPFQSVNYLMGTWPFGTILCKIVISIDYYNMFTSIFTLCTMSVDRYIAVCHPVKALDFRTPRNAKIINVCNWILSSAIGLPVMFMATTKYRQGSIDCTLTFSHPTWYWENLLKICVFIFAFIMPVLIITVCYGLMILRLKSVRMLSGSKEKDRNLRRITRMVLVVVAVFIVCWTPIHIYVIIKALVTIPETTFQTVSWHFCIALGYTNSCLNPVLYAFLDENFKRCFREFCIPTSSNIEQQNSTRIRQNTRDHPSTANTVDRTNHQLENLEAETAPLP

Experiments:
ORL 1-receptor = ORL 1-receptor (Homo sapiens, UniProt P41146); assay: ORL 1 receptor binding assay with 3H-nociceptine/orphanin FQ (WGA-SPA beads); conditions: membranes of recombinant CHO-ORL 1 cells, 0.5 nM 3H-nociceptine/orphanin FQ; for pKi: read-out: Ki (ORL1) Mean, mean; for % Inhibition (ORL1) [1 μM]: test concentration 1 μM
human μ-opiate receptor = human μ-opiate receptor (Homo sapiens, UniProt P35372); assay: μ-opiate receptor binding assay with [3H]-naloxone (WGA-SPA beads); conditions: CHO-K1 membrane preparation, 1 nmol/l [3H]-naloxone; for pKi: read-out: Ki (μ) Mean, Cheng-Prusoff, mean; for % Inhibition (μ) [1 μM]: test concentration 1 μM

Structure (SMILES)	pKi (ORL 1-receptor)	% Inhibition (ORL1) [1 μM] (ORL 1-receptor) [%]	pKi (human μ-opiate receptor)	% Inhibition (μ) [1 μM] (human μ-opiate receptor) [%]
COC(=O)CC1CC(c2ccccc2)(N(C)C)CCC12OCCc1c2[nH]c2ccccc12 (single isomer, unassigned) [Ex. 14]	8.22	94	8.52	101
COC(=O)CC1CC(c2ccccc2)(N(C)C)CCC12OCCc1c2[nH]c2ccccc12 (single isomer, unassigned) [Ex. 15]	6.47	33	6.78	68

pKi: −log10 of the molar value. The match of structure and compound is tentative.
